Columns and labels:
[1] = tested on: intestinal transit of the charcoal; assay: Vegetable carbon (charcoal) intestinal transit test in vivo; conditions: therapeutic index, DL50 / charcoal ED50, rat i.v.
Protocol: B. The vegetable carbon method in vivo (charcoal method) which consists of administering by oral means to rats, which have fasted for 24 hours, 0.3ml/per rate of a mixture consisting of: 10g of charcoal and 5 g of gum arabic suspended in a volume of 100 cc of H2 O as well as at the same time the substance being studied, accordingly as desired, generally i.v., s.c., oral. After two hours the animals are killed and those are taken to be negative in which the charcoal has reached the first portion of the colon and the others positive, in the sense that the substance administered has slowed down the intestinal transit of the charcoal.
In effect the animals treated with a physiological solution (checks) are all negative after two hours.
D. I.T.1 is the therapeutic index under the profile of the antispastic activity in vivo, and it is obtained by recording the DL50 (column 2) with the ED50 of the charcoal test (column 3).

[2] = tested on: ileum of a cavy (BaCl2 spasm); assay: Antispastic activity in vitro, Magnus method, cavy ileum stimulated with BaCl2; format: cell-based; conditions: therapeutic index, in vitro activity index (column 4) x DL50
Protocol: C. The method in vitro is that of Magnus, with the ileum of the cavy, and is in common use for all evaluations. It consists of extracting the ileum from the cavy and placing it in a receptacle which contains nutritive liquid, suitably oxygenated, and registering the movements of the organ which remains alive for several hours if maintained at a temperature of 37°. According to the traditional method followed by us, BaCl2 is put into the bath as a spasmisant: the reaction is a violent contraction of the organ. This contraction can be prevented by adding beforehand pharmaceuticals which inhibit spasms, and in this case our compounds.
The values recorded are expressed as relation between papaverine and the ED50 of our compounds. (As is known, the ED50 is the dose which results in a 50% reduction in spastic contraction).
E. I.T.2 is the therapeutic index under the profile of the antispastic activity in vitro and is given by the product between the in vitro antispastic activity index (column 4) and the corresponding DL50 (column 2).

SMILES	I.T.1: DL50/ED50 in vivo [1]	I.T.2: DL50 CR x ED50 pap./ED50 CR [2]
CCCN(CCC)C(=O)C(Cc1ccc(OCCN(CC)CC)cc1)NC(=O)OCc1ccccc1 [CR 830, O-(2-diethylamino-ethyl)-N-carbobenzoxy-L-tyrosil-di-n-propylamide]	1.8	47.2
CCCCNC(=O)C(Cc1ccc(OCCCN2CCN(C)CC2)cc1)NC(=O)c1ccc(Cl)cc1 (racemic) [CR 705, O-[3-(N"-methyl-piperazine)-N'-propyl]-N-(p-chloro-benzoyl)-DL-tyrosil-n-butylamide]	2.1	126
CCCCNC(=O)C(Cc1ccc(OCCN2CCCC2)cc1)NC(=O)c1ccc(Cl)cc1 (racemic) [CR 812, O-(2'-pyrrolidil-N'-ethyl)-N-(p-chloro-benzoyl)-DL-tyrosil-n-butylamide]	1.3	27.8
CCN(CC)CCOc1ccc(CC(NC(=O)c2ccccc2)C(=O)N(C)C)cc1 (racemic) [CR 738, O-(2-diethylamino-ethyl)-N-benzoyl-DL-tyrosil-di-methylamide]	1.7	11.9
CCCN(CCC)C(=O)C(Cc1ccc(OCCN(CC)CC)cc1)NC(=O)c1ccc(Br)cc1 (racemic) [CR 631, O-(2-diethylamino-ethyl)-N-(p-bromobenzoyl)-DL-tyrosil-din-propylamide]	1.5	73.1
CCCN(CCC)CCOc1ccc(CC(NC(=O)c2ccccc2)C(=O)N(CCC)CCC)cc1 (racemic) [CR 823, O-(2-di-n-propylamino-ethyl)-N-benzoyl-DL-tyrosil-di-n-propylamide]	1.4	34.1
CCCCCCNC(=O)C(Cc1ccc(OCCN2CCCC2)cc1)NC(=O)c1ccccc1 (racemic) [CR 825, O-(2-pyrrolidil-N'-ethyl)-N-benzoyl-DL-tyrosil-n-hexylamide]	2.8	75.7
CCCN(CCC)C(=O)C(Cc1ccc(OCCCN2CCN(C)CC2)cc1)NC(=O)c1ccc(Cl)cc1 (racemic) [CR 725, O-[3-(N"-methyl-piperazine)-N'-propyl]-N-(p-chloro-benzoyl)-DL-tyrosil-di-n-propylamide]	5.1	200
CCCN(CCC)C(=O)C(Cc1ccc(OCCN(CC)CC)cc1)NC(=O)c1ccc(Cl)cc1 [CR 831, O-(2-diethylamino-ethyl)-N-(p-chloro-benzoyl)-L-tyrosil-din-propylamide]	1.4	45.5
CCCN(CCC)C(=O)C(Cc1ccc(OCCN(CC)CC)cc1)NC(=O)c1ccc(C(F)(F)F)cc1 (racemic) [CR 635, O-(2-diethylamino-ethyl)-N-[p-(trifluoro-methyl)-benzoyl]-DL-tyrosil-di-n-p ropylamide]	1.5	36.8
CCCN(CCC)C(=O)C(Cc1ccc(OCCN2CCN(C)CC2)cc1)NC(=O)c1ccc(Cl)cc1 (racemic) [CR 733, O-[2'-(N"-methyl-piperazine)-N'-ethyl]-N-(p-chloro-benzoyl)-DL-tyrosil-di-n-propylamide]	2.6	57
CCCN(CCC)C(=O)C(Cc1ccc(OCCN2CCCC2)cc1)NC(=O)c1ccccc1 (racemic) [CR 625, O-(2-pyrrolidil-N'-ethyl)-N-benzoyl-DL-tyrosil-di-n-propylamide]	1.5	16.9
CCCN(CCC)C(=O)C(Cc1ccc(OCCN(CC)CC)cc1)NC(=O)c1ccccc1 (racemic) [CR 605, O-(2-diethylamino-ethyl)-N-benzoyl-DL-tyrosil-di-n-propylamide]	3.2	42.5
CCCN(CCC)C(=O)C(Cc1ccc(OCCN(C)C)cc1)NC(=O)OCc1ccc([N+](=O)[O-])cc1 (centres unmarked) [CR 613]	1.7	68.2
CCCN(CCC)C(=O)C(Cc1ccc(OCCN(CC)CC)cc1)NC(=O)c1ccccc1 [CR 804, O-(2-diethylamino-ethyl)-N-benzoyl-L-tyrosil-di-n-propylamide]	2.1	29.8
CCCN(CCC)C(=O)C(Cc1ccc(OCCN(CC)CC)cc1)NC(=O)c1ccc(C)cc1 (racemic) [CR 807, O-(2-diethylamino-ethyl)-N-toluoyl-DL-tyrosil-di-n-propylamide]	1.5	10.7
